Measurements: patent US20160297875A1 (CASE WESTERN RESERVE UNIVERSITY, published 2016)
These are yes or no findings as the source states them, for the method shown. Some entries that bind do so weakly or less than the wild type.

Amino acid sequences for entries named in this document (tags omitted). Residues count along the entry.
UniProt P16671, residues 30-439: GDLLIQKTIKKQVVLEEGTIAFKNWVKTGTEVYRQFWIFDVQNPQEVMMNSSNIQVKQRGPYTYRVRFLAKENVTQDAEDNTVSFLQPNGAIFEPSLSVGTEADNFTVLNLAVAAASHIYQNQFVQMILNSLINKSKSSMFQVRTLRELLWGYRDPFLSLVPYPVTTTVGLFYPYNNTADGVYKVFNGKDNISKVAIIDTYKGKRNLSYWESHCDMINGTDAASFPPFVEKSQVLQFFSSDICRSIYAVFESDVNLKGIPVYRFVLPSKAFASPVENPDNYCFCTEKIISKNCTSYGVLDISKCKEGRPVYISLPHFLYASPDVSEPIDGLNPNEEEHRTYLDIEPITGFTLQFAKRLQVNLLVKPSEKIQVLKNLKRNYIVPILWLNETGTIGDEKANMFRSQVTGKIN

Legend:
[1] = biological target: GST-CLESH (CD36 CLESH domain containing peptide, aa93-120, as GST fusion protein) (human); assay: plate binding assay, MRP14 1-5 µg/ml on sCD36, GST-CLESH or GST-control
[2] = biological target: purified soluble CD36 (UniProt P16671); assay: plate binding assay, CD36 coated on wells, MRP-14 0-2.5 µg/ml, detection with anti-human MRP-14 antibody at 450 nm
[3] = biological target: purified soluble CD36 (UniProt P16671); assay: plate binding assay
[4] = biological target: GST-CLESH (CD36 CLESH domain containing peptide, aa93-120, as GST fusion protein) (human); assay: solid phase plate binding assay with recombinant CD36 peptides (GST fusions)

Measured: binding

B1: purified, recombinant human MRP-14 (ligand, UniProt P06702 1-114, looked up)
chain: MTCKMSQLERNIETIINTFHQYSVKLGHPDTLNQGEFKELVRKDLQNFLKKENKNEKVIEHIMEDLDTNADKQLSFEEFIMLMARLTWASHEKMHEGDEGPGHHHKPGLGEGTP
notes: Bought protein; also called purified MRP-14; purified human MRP-14 protein
binds: all assays above
